Reference: publication PMC6554399
No constants are given. Whether binding was seen depends on the method and setting. Some results given as binding are weak or reduced against the parent protein; the word gives no strength.

By UniProt entry, the sequences of proteins in these tests, tags left out. Residues count along the entry.
UniProt P06276, residues 29-602: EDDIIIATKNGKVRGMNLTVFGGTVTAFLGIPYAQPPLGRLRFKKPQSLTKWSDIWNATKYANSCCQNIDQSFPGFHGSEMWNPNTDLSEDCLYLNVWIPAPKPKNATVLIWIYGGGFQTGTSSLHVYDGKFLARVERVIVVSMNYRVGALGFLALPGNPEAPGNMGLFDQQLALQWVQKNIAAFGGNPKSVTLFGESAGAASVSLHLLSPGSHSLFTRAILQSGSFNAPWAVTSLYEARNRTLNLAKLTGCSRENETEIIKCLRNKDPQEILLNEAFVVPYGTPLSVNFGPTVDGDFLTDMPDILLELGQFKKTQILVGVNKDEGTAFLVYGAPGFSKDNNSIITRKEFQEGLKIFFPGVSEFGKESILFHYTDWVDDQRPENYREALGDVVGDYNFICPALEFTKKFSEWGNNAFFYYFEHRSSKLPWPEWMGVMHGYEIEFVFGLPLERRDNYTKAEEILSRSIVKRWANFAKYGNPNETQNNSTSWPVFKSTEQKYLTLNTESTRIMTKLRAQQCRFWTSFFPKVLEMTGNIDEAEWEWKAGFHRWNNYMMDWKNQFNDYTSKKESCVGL
UniProt P18065, residues 36-325: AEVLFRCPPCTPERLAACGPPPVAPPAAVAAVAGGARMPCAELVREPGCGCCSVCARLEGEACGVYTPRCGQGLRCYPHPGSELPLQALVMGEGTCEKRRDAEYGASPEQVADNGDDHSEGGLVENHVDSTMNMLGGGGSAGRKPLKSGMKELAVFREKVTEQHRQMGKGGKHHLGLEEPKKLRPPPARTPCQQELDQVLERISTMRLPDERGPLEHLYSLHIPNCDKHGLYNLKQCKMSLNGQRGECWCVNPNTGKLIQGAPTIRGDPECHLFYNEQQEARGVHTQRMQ

Molecular target: butyrylcholine esterase (BCHE) (human (endogenous in plasma)) (UniProt P06276)
Experiment: multiplexed sandwich immunoassay (Luminex bead array); capture antibody against one protein on colour-coded magnetic beads, labelled detection antibody against the other protein, streptavidin-R-PE read-out; EDTA plasma diluted from 1:20 in 4-fold steps (6 points, duplicate) in PVXC buffer with 10% rabbit IgG, heat-treated (56 °C, 30 min) or untreated, overnight

binding: binds
Substance: insulin growth factor binding protein 2 (IGFBP2) (from UniProt P18065 36-325)
